Paper doi:10.1101/2024.02.15.580496 (bioRxiv, 2024)
Results are given in words; binding and its absence hold for the method and conditions named. In cells and extracts the contact can be indirect.

Protein sequences, listed by entry. Tags and fused reporters are not part of them. Lines headed by an entry give the natural chain unless they say otherwise; changes in a name come on top.
UniProt Q9FIE3: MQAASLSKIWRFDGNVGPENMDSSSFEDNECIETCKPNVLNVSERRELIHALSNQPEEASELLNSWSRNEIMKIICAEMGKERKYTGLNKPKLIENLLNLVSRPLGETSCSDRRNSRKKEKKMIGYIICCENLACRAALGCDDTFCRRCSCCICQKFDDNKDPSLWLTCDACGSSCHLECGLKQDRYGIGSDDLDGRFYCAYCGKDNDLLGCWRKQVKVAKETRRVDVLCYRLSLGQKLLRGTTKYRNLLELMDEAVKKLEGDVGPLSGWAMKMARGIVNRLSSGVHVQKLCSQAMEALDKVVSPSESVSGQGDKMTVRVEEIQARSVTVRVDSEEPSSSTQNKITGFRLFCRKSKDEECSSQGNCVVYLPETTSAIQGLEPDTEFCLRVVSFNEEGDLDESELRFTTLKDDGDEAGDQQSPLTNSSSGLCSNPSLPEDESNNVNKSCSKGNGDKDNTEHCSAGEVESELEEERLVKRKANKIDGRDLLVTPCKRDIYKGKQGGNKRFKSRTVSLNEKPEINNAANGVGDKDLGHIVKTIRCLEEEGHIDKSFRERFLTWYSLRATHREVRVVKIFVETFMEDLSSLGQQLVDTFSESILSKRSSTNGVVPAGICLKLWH

Biological target: VIN3-GFP R556D/I575D (Arabidopsis thaliana) (UniProt Q9FIE3)
Assay: co-IP

B1: FIE (PRC2 core subunit) (protein, UniProt Q9LT47 1-369)
chain: MSKITLGNESIVGSLTPSNKKSYKVTNRIQEGKKPLYAVVFNFLDARFFDVFVTAGGNRITLYNCLGDGAISALQSYADEDKEESFYTVSWACGVNGNPYVAAGGVKGIIRVIDVNSETIHKSLVGHGDSVNEIRTQPLKPQLVITASKDESVRLWNVETGICILIFAGAGGHRYEVLSVDFHPSDIYRFASCGMDTTIKIWSMKEFWTYVEKSFTWTDDPSKFPTKFVQFPVFTASIHTNYVDCNRWFGDFILSKSVDNEILLWEPQLKENSPGEGASDVLLRYPVPMCDIWFIKFSCDLHLSSVAIGNQEGKVYVWDLKSCPPVLITKLSHNQSKSVIRQTAMSVDGSTILACCEDGTIWRWDVITK
For B1, the binding was “no binding”.
